Experimental data reported in PMC5552905, “Mechanisms of peptide sex pheromone regulation of conjugation in Enterococcus faecalis” (MicrobiologyOpen, 2017).
These are yes or no findings as the source states them, for the method shown. Some entries that bind do so weakly or less than the wild type. Tags and fused reporters may be left off the sequences shown.

Biological target: His-tagged PrgX (Enterococcus faecalis (plasmid pCF10)) (UniProt Q04114)
Assay: SEC; PrgX exposed to the control peptide cAD1; data not shown; both purified

binding: binds
B1: His-tagged PrgX (natural protein, Enterococcus faecalis (plasmid pCF10), UniProt Q04114 1-317, looked up)
chain: MFKIGSVLKQIRQELNYHQIDLYSGIMSKSVYIKVEADSRPISVEELSKFSERLGVNFFEILNRAGMNTKSVNETGKEKLLISKIFTNPDLFDKNFQRIEPKRLTSLQYFSIYLGYISIAHHYNIEVPTFNKTITSDLKHLYDKRTTFFGIDYEIVSNLLNVLPYEEVSSIIKPMYPIVDSFGKDYDLTIQTVLKNALTISIMNRNLKEAQYYINQFEHLKTIKNISINGYYDLEINYLKQIYQFLTDKNIDSYLNAVNIINIFKIIGKEDIHRSLVEELTKISAKEKFTPPKEVTMYYENYVAIENNPIPEIKEQS
notes: PrgX, master transcription regulator and sex pheromone receptor encoded by the Enterococcus faecalis plasmid pCF10; also called HisPrgX; Apo-PrgX
